Experimental data from article PMC5465353.
Results are given in words; binding and its absence hold for the method and conditions named. In cells and extracts the contact can be indirect. Some entries that bind do so weakly or less than the wild type. Sequences can lack the tags named with a protein.

The chains behind the UniProt entries cited, without tags or fusion partners.
UniProt Q9ULZ3: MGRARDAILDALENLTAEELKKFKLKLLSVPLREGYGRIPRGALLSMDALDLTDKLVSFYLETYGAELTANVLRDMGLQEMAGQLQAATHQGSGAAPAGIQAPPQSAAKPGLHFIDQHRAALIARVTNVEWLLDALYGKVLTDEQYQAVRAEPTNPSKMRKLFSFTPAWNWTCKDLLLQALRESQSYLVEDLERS

Experiments:
GST-POP2 (human) = biological target: T1, GST-POP2 (human) (UniProt Q56P42); test: pull-down; immobilized GST-POP2 incubated with cleared lysates of LPS-treated (4 h) THP-1 cells or iBMDM for 16 h at 4 °C; 50 mM HEPES pH 7.4, 120 mM NaCl, 10% glycerol, 2 mM EDTA, 0.5% Triton X-100; immunoblot; only the target purified
T1 sequence: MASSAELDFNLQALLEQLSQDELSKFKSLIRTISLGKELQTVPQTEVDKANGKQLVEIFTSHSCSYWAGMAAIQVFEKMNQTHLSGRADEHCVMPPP

[1] = biological target: ASC (human, endogenous in THP-1 cells) (human (endogenous in THP-1)) (UniProt Q9ULZ3); test: co-IP; THP-1 cells stably expressing His-POP2, LPS-primed (16 h) and nigericin-treated (45 min); sepharose-immobilized ASC antibody, 16 h at 4 °C; 50 mM HEPES pH 7.4, 150 mM NaCl, 10% glycerol, 2 mM EDTA, 0.5% Triton X-100; immunoblot

ASC (human, endogenous in THP-1 cells) (from UniProt Q9ULZ3 1-195)
binding (GST-POP2 (human)): binds

B1: His-POP2 (protein, UniProt Q56P42 1-97)
chain: MASSAELDFNLQALLEQLSQDELSKFKSLIRTISLGKELQTVPQTEVDKANGKQLVEIFTSHSCSYWAGMAAIQVFEKMNQTHLSGRADEHCVMPPP
binding [1]: binds
